Experimental data published in PMC5487319 (Scientific Reports, 2017).
No constants are given. Whether binding was seen depends on the method and setting. In cells and extracts the contact can be indirect. Some binding calls cover weakened binding; strength is not graded here. Sequences can lack the tags named with a protein.

Chains of the proteins cited; added tags and fusions are not shown. Residues count along the entry.
UniProt P17948, residues 27-1338: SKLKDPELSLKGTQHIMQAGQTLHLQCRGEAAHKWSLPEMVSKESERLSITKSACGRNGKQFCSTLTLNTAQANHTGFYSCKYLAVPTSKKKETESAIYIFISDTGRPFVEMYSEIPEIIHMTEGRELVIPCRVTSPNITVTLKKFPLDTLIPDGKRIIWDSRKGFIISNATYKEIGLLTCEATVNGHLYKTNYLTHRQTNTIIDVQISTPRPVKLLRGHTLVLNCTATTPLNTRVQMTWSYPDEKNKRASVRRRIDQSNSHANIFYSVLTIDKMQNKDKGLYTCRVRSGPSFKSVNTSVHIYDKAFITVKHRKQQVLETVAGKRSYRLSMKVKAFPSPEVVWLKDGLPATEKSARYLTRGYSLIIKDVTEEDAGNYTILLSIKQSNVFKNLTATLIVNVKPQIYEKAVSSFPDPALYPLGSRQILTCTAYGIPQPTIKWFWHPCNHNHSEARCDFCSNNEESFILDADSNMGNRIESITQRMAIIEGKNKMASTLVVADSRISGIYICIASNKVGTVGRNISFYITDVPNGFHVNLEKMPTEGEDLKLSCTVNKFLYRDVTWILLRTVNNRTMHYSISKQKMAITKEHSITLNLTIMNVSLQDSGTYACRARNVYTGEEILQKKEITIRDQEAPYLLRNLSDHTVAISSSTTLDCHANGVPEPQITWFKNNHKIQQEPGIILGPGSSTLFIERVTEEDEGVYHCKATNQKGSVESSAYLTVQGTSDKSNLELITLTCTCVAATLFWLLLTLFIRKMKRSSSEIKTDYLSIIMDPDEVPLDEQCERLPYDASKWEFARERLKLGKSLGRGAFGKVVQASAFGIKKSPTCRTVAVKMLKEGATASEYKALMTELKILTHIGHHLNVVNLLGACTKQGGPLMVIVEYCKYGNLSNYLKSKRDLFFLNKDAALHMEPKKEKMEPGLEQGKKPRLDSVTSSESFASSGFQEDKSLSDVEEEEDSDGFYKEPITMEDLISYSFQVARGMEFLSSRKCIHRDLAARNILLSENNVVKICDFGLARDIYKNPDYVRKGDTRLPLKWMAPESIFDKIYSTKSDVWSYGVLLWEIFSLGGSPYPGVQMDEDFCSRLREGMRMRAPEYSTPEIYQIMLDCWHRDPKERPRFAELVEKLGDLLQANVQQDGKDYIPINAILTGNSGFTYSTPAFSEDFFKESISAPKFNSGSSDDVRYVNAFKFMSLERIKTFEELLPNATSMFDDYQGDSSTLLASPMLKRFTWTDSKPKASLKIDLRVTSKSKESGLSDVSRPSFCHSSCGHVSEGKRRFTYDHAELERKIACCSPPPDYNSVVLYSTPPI

Tests used:
[1] = biological target: T1, GST-…; experiment: co-IP; purified GST-peptide (80 or 185 nmol/L) added to A549 cells for 12 h, cells lysed, 600 ug protein precipitated with anti-GST antibody, blot for VEGFR-1; IgG as negative group; only the target purified
T1 sequence: QKRKRKKSRKKH

[2] = biological target: T2, GST-…; experiment: as above; remark: listed apart in the source
T2 sequence: RKRKRKKSRYIVLS

[3] = biological target: VEGFR-1 (human (endogenous in A549)) (UniProt P17948); experiment: co-IP; reversed co-IP: purified GST-peptide (80 or 185 nmol/L) added to A549 cells for 12 h, cells lysed, 600 ug protein precipitated with anti-VEGFR-1 antibody, blot for GST-peptide; IgG as negative group; only the binder purified

“VEGFR-1 (from UniProt P17948 27-1338) (receptor)” was tested, and the binding [1] was “binds” and the binding [2] was “binds”.

B1: QKRKRKKSRKKH (peptide)
peptide: QKRKRKKSRKKH
notes: core motif RKRKKSR kept; also called non-labeled peptide; source: synthetic peptide (ChinaPeptides Co., Ltd., SPPS, HPLC purified)
In the case of B1, the binding [3] is reported as “binds”.

B2: RKRKRKKSRYIVLS (peptide)
peptide: RKRKRKKSRYIVLS
notes: as for B1
With B2 the binding [3] was “binds”.
